Assay results: US12661431B2, “Pharmaceutical compositions for treating osteoarthritis” (INSIGNIA PHARMACEUTICALS, LLC, priority 2023, dated 2026)
Some results were stated once for a whole list of compounds, not compound by compound.

Tested on: THP-1 macrophage-like cells
Assay: Colorimetric MTS cell density/viability assay, resting and activated THP-1 cultures
Type: cell-based, human
Conditions: as shown in FIGS. 6A and 6B
Method: Then cell density was assessed in both resting and activated cultures using a colorimetric MTS assay with optical density at 490 nanometers (FIGS. 6A & 6B).

Structure (SMILES): CCCCCCCCCC(=O)O [decanoic acid]
- toxic concentration: greater than 5 millimolar

Structure (SMILES): CCCCCCCC(=O)O [octanoic acid]
- toxic concentration: greater than 5 millimolar
